Laboratory results taken from paper PMC3226435, “Slice orientation and muscarinic acetylcholine receptor activation determine the involvement of N-methyl D-aspartate receptor subunit GluN2B in hippocampal area CA1 long-term depression” (Molecular Brain, 2011).
No constants are given. Whether binding was seen depends on the method and setting. In cells and extracts the contact can be indirect. Some results given as binding are weak or reduced against the parent protein; the word gives no strength.

The chains behind the UniProt entries cited, without tags or fusion partners. Residues count along the entry.
UniProt Q00960, residues 27-1482: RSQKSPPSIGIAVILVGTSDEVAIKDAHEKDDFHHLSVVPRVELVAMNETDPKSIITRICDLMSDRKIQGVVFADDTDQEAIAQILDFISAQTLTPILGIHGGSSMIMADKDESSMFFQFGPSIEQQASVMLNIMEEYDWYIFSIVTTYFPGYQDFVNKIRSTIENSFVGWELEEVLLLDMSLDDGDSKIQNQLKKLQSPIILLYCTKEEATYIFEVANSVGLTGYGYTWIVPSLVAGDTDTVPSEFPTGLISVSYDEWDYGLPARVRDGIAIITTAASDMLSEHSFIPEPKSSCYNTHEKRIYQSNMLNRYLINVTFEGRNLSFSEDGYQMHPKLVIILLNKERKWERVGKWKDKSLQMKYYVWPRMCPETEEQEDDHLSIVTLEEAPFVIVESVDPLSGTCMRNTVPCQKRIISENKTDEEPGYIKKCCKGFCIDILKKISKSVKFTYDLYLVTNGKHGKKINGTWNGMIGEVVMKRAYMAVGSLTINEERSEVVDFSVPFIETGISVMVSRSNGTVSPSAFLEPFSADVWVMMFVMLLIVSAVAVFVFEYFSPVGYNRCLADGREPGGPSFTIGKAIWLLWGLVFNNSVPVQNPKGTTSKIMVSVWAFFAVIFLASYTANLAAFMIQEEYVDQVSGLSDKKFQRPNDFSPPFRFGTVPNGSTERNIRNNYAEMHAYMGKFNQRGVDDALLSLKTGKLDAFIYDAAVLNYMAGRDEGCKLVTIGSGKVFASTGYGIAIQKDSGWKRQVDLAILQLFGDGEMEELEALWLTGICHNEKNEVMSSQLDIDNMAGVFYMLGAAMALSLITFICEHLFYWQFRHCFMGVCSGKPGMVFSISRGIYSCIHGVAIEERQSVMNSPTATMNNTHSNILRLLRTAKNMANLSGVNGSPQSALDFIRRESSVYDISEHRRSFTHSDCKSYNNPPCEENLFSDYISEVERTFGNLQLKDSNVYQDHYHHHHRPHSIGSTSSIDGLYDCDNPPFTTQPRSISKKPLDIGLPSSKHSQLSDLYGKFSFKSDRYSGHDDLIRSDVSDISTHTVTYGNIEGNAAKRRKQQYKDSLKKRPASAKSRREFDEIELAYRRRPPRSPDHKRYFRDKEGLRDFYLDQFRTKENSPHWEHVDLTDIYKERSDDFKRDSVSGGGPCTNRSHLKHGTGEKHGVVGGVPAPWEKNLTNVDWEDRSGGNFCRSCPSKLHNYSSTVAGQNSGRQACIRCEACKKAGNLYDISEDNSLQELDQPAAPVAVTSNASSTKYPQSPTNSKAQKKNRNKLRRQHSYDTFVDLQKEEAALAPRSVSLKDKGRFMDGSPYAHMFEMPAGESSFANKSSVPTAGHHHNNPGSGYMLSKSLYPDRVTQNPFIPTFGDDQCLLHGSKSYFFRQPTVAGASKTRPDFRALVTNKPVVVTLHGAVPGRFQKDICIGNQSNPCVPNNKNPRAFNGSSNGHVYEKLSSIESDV

Biological target: N-methyl D-aspartate receptor subunit GluN2B (rat (endogenous in hippocampal slices)) (UniProt Q00960)
Experiment: co-IP; GluN2B immunoprecipitated with rabbit polyclonal anti-GluN2B C-terminal antibody on protein A beads from 500 ug RIPA lysate of rat hippocampal slices (sagittal control or 20 uM scopolamine for 2 hrs; untreated coronal or sagittal), overnight at 4°C, four washes in RIPA; Western blot for RasGRF1, RasGRF1 normalized to GluN2B

binding: binds
B1: Ras Guanine nucleotide Release Factor 1 (natural protein, rat (endogenous in hippocampal slices), UniProt P28818 1-1244, looked up)
chain: MQKAIRLNDGHVVSLGLLAQRDGTRKGYLSKRSSDNPKWQTKWFALLQNLLFYFESDSSSRPSGLYLLEGSICKRMPSPKRGTSSKESDKQHHYFTVNFSNDSQKSLELRTDDSKDCDEWVAAIARASYKILATEHEALMQKYLHLLQVVETEKTVAKQLRQQLEDGEVEIERLKAEIANLIKDNERIQSNQLVAPEDEDSDIKKIKKVQSFLRGWLCRRKWKNIIQDYIRSPHADSMRKRNQVVFSMLEAEAEYVQQLHILVNNFLRPLRMAASSKKPPITHDDVSSIFLNSETIMFLHQIFYQGLKARIASWPTLVLADLFDILLPMLNIYQEFVRNHQYSLQILAHCKQNRDFDKLLKQYEAKPDCEERTLETFLTYPMFQIPRYILTLHELLAHTPHEHVERNSLDYAKSKLEELSRVMHDEVSETENIRKNLAIERMITEGCEILLDTSQTFVRQGSLIQVPMSEKGKINKGRLGSLSLKKEGERQCFLFSKHLIICTRGSGSKLHLTKNGVISLIDCTLLDDPENMDDDGKGQEVDHLDFKIWVEPKDSPPFTVILVASSRQEKAAWTSDIIQCVDNIRCNGLMMNAFEENSKVTVPQMIKSDASLYCDDVDIRFSKTMNSCKVLQIRYASVERLLERLTDLRFLSIDFLNTFLHSYRVFTDAVVVLDKLISIYKKPITAIPARSLELLFSSSHNTKLLYGDAPKSPRASRKFSSPPPLAIGTSSPVRRRKLSLNIPIITGGKALELASLGCPSDGYTNIHSPISPFGKTTLDTSKLCVASSLTRTPEEIDMTTLEESSGFRKPTSDILKEESDDDQSDVDDTEVSPPTPKSFRNRITQEFPLFNYNSGIMMTCRDLMDSNRSPLSATSAFAIATAGANESPANKEIYRRMSLANTGYSSDQRNIDKEFVIRRAATNRVLNVLRHWVTKHSQDFETDDLLKYKVICFLEEVMHDPDLLPQERKAAANIMRTLTQEEITENHSMLDELLLMTEGVKTEPFENHSAMEIAEQLTLLDHLVFKSIPYEEFFGQGWMKADKNERTPYIMKTTRHFNHISNLIASEILRNEEVSARASTIEKWVAVADICRCLHNYNAVLEITSSINRSAIFRLKKTWLKVSKQTKSLFDKLQKLVSSDGRFKNLRETLRNCDPPCVPYLGMYLTDLAFLEEGTPNYTEDGLVNFSKMRMISHIIREIRQFQQTTYKIEPQPKVTQYLVDETFVLDDESLYEASLRIEPKLPT
notes: RasGRF1, Ras-specific guanine nucleotide exchange factor, endogenous in hippocampal slices of male Sprague-Dawley rats aged 14-21 days; Detected in the GluN2B immunoprecipitate by Western blot with a rabbit polyclonal anti-RasGRF1 antibody; also called RasGRF1; source: endogenous, lysate of rat hippocampal slices (RIPA buffer)
